# The other results are listed elsewhere or left out.
# B1: SBD (Rhizopus oryzae), P07683 (protein)
# chain: ASIPSSASVQLDSYNYDGSTFSGKIYVKNIAYSKKVTVVYADGSDNWNNNGNIIAASFSGPISGSNYEYWTFSASVKGIKEFYIKYEVSGKTYYDNNNSANYQVS
# Columns and labels:
# Experiment in all cases: glycan array binding signal (z-score within array); higher = stronger binding
# Settings in all cases: glycan notation: IUPAC condensed, linker removed
# [1] = molecular target: Gal3S(b1-3)[Fuc(a1-4)]GlcNAc
# Outline: (§1)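 The binding signal is a Z-score computed within each array. Data were drawn from 3228 arrays in the Consortium for Functional Glycomics database, restricted to those with a known protein sequence. Scores were averaged over arrays of the same protein sequence at different concentrations or buffers, and over linkers, and negative values can be taken as non-binding.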
# [2] = molecular target: Gal3S(b1-4)Glc
# Outline: as §1
# [3] = molecular target: Gal3S(b1-4)Glc6S
# Outline: as §1
# [4] = molecular target: Gal3S(b1-4)GlcNAc
# Outline: as §1
# [5] = molecular target: Gal3S(b1-4)GlcNAc6S
# Outline: as §1
# [6] = molecular target: Gal3S(b1-4)[Fuc(a1-3)]Glc
# Outline: as §1
# [7] = molecular target: Gal3S(b1-4)[Fuc(a1-3)]Glc6S
# Outline: as §1
# [8] = molecular target: Gal3S4S(b1-4)GlcNAc
# Outline: as §1
# [9] = molecular target: Gal3S6S(b1-4)GlcNAc
# Outline: as §1
# [10] = molecular target: Gal3S6S(b1-4)GlcNAc6S
# Outline: as §1
# [11] = molecular target: Gal4S(b1-4)GlcNAc
# Outline: as §1
# [12] = molecular target: Gal4S6S(b1-4)GlcNAc
# Outline: as §1
# [13] = molecular target: Gal6S(b1-4)Glc
# Outline: as §1
# [14] = molecular target: Gal6S(b1-4)Glc6S
# Outline: as §1
# [15] = molecular target: Gal6S(b1-4)GlcNAc
# Outline: as §1
# [16] = molecular target: Gal6S(b1-4)GlcNAc6S
# Outline: as §1
# [17] = molecular target: GalNAc(a1-3)Gal
# Outline: as §1
# [18] = molecular target: GalNAc(a1-3)GalNAc
# Outline: as §1
# [19] = molecular target: GalNAc(a1-3)GalNAc(a1-3)Gal(a1-4)Gal(b1-4)GlcNAc
# Outline: as §1
# [20] = molecular target: GalNAc(b1-3)Gal
# Outline: as §1
# [21] = molecular target: GalNAc(b1-3)Gal(a1-4)Gal(b1-4)GlcNAc
# Outline: as §1
# [22] = molecular target: GalNAc(b1-3)Gal(a1-4)Gal(b1-4)GlcNAc(b1-3)Gal(b1-4)Glc
# Outline: as §1
# [23] = molecular target: GalNAc(b1-3)Gal(a1-6)Gal(b1-4)Glc
# Outline: as §1
# [24] = molecular target: GalNAc(b1-3)GalNAc
# Outline: as §1
# [25] = molecular target: GalNAc(b1-4)GlcNAc
# Outline: as §1
# [26] = molecular target: GalNAc(b1-4)GlcNAc(b1-2)Man(a1-3)[GalNAc(b1-4)GlcNAc(b1-2)Man(a1-6)]Man(b1-4)GlcNAc(b1-4)GlcNAc
# Outline: as §1
# [27] = molecular target: Glc(a1-4)Glc
# Outline: as §1
# [28] = molecular target: Glc(a1-6)Glc(a1-6)Glc
# Outline: as §1
# [29] = molecular target: Glc(b1-4)Glc
# Outline: as §1
# [30] = molecular target: Glc(b1-6)Glc
# Outline: as §1
# [31] = molecular target: GlcA(b1-3)Gal
# Outline: as §1
# [32] = molecular target: GlcA(b1-3)GlcNAc
# Outline: as §1
# [33] = molecular target: GlcA(b1-6)Gal
# Outline: as §1
# [34] = molecular target: GlcNAc(a1-3)Gal(b1-4)GlcNAc
# Outline: as §1
# [35] = molecular target: GlcNAc(a1-4)Gal(b1-3)GlcNAc
# Outline: as §1
# [36] = molecular target: GlcNAc(a1-4)Gal(b1-4)GalNAc
# Outline: as §1
# [37] = molecular target: GlcNAc(a1-4)Gal(b1-4)GlcNAc
# Outline: as §1
# [38] = molecular target: GlcNAc(a1-4)Gal(b1-4)GlcNAc(b1-3)Gal(b1-4)Glc
# Outline: as §1
# [39] = molecular target: GlcNAc(a1-4)Gal(b1-4)GlcNAc(b1-3)Gal(b1-4)GlcNAc
# Outline: as §1
# [40] = molecular target: GlcNAc(a1-4)Gal(b1-4)GlcNAc(b1-3)Gal(b1-4)GlcNAc(b1-3)Gal(b1-4)GlcNAc
# Outline: as §1
# [41] = molecular target: GlcNAc(a1-4)Gal(b1-4)GlcNAc(b1-3)Gal(b1-4)[Fuc(a1-3)]GlcNAc(b1-3)Gal(b1-4)[Fuc(a1-3)]GlcNAc
# Outline: as §1
# [42] = molecular target: GlcNAc(a1-6)Gal(b1-4)GlcNAc
# Outline: as §1
# [43] = molecular target: GlcNAc(b1-2)Gal(b1-3)GalNAc
# Outline: as §1
# [44] = molecular target: GlcNAc(b1-2)Man(a1-3)[GlcNAc(b1-2)Man(a1-6)]Man(b1-4)GlcNAc(b1-4)GlcNAc
# Outline: as §1
# [45] = molecular target: GlcNAc(b1-2)Man(a1-3)[GlcNAc(b1-2)Man(a1-6)]Man(b1-4)GlcNAc(b1-4)[Fuc(a1-6)]GlcNAc
# Outline: as §1
binder,measurement,setting,value
B1,glycan array binding signal (z-score),[1],-0.538
same,glycan array binding signal (z-score),[2],0.207
same,glycan array binding signal (z-score),[3],-0.023
same,glycan array binding signal (z-score),[4],-0.136
same,glycan array binding signal (z-score),[5],0.038
same,glycan array binding signal (z-score),[6],0.05
same,glycan array binding signal (z-score),[7],0.193
same,glycan array binding signal (z-score),[8],-0.251
same,glycan array binding signal (z-score),[9],0.752
same,glycan array binding signal (z-score),[10],0.19
same,glycan array binding signal (z-score),[11],-0.505
same,glycan array binding signal (z-score),[12],-0.199
same,glycan array binding signal (z-score),[13],-0.476
same,glycan array binding signal (z-score),[14],-0.03
same,glycan array binding signal (z-score),[15],-0.266
same,glycan array binding signal (z-score),[16],-0.249
same,glycan array binding signal (z-score),[17],0.088
same,glycan array binding signal (z-score),[18],0.058
same,glycan array binding signal (z-score),[19],-0.49
same,glycan array binding signal (z-score),[20],-0.325
same,glycan array binding signal (z-score),[21],-0.155
same,glycan array binding signal (z-score),[22],-0.276
same,glycan array binding signal (z-score),[23],-1.07
same,glycan array binding signal (z-score),[24],-0.363
same,glycan array binding signal (z-score),[25],-0.299
same,glycan array binding signal (z-score),[26],0.888
same,glycan array binding signal (z-score),[27],0.137
same,glycan array binding signal (z-score),[28],-0.213
same,glycan array binding signal (z-score),[29],-0.436
same,glycan array binding signal (z-score),[30],-0.069
same,glycan array binding signal (z-score),[31],-0.294
same,glycan array binding signal (z-score),[32],1.04
same,glycan array binding signal (z-score),[33],0.255
same,glycan array binding signal (z-score),[34],0.093
same,glycan array binding signal (z-score),[35],0.397
same,glycan array binding signal (z-score),[36],0.474
same,glycan array binding signal (z-score),[37],-0.268
same,glycan array binding signal (z-score),[38],0.405
same,glycan array binding signal (z-score),[39],0.374
same,glycan array binding signal (z-score),[40],0.187
same,glycan array binding signal (z-score),[41],0.873
same,glycan array binding signal (z-score),[42],-0.694
same,glycan array binding signal (z-score),[43],-0.108
same,glycan array binding signal (z-score),[44],-0.07
same,glycan array binding signal (z-score),[45],0.42

# Retrieved one by one from above (four):
binder,measurement,setting,value
B1,glycan array binding signal (z-score),[29],-0.436
same,glycan array binding signal (z-score),[27],0.137
same,glycan array binding signal (z-score),[35],0.397
same,glycan array binding signal (z-score),[41],0.873
